In US20110183418 (published 2011):

Experiment: peptide made by a vendor (Fmoc solid-phase peptide synthesis; Fmoc-Rink Amide resin; DIC/HOBt with NMM; HBTU/HOBt with NMM)
Conditions: for step yield: purification step, purification yield; for final purity (method not given): scale of the general procedure 15 mmol, 1 mmol

| Substance | step yield [%] | crude mass (whole synthesis, scale 15 mmol) [gram] | final purity (method not given) (whole synthesis) | isolated mass (whole synthesis) [g] | crude mass (whole synthesis, scale 1 mmol) [gram] |
| --- | --- | --- | --- | --- | --- |
| Ac-Lys(MAA)-Gly-Gly-Pro-Gln-Val-Thr-Arg-Gly-Asp-Val-Phe-Thr-Met-Pro-NH2 | 54.4 | 33.0 | over 90% | – | – |
| MAA-PEO4-Lys-Gly-Gly-Pro-Gln-Val-Thr-Arg-Gly-Asp-Val-Phe-Thr-Met-Pro-NH2 | 25.9 | – | over 90% | 1.035 | 4.0 |
